Experimental data taken from paper PMC8750186.
These are yes or no findings as the source states them, for the method shown. Binding seen in cells or lysates may run through a third protein. Some binding calls cover weakened binding; strength is not graded here.

Sequences of proteins named here, by UniProt entry; tags and fusion partners are left off. Residues count along the entry.
UniProt P08603, residues 19-1231: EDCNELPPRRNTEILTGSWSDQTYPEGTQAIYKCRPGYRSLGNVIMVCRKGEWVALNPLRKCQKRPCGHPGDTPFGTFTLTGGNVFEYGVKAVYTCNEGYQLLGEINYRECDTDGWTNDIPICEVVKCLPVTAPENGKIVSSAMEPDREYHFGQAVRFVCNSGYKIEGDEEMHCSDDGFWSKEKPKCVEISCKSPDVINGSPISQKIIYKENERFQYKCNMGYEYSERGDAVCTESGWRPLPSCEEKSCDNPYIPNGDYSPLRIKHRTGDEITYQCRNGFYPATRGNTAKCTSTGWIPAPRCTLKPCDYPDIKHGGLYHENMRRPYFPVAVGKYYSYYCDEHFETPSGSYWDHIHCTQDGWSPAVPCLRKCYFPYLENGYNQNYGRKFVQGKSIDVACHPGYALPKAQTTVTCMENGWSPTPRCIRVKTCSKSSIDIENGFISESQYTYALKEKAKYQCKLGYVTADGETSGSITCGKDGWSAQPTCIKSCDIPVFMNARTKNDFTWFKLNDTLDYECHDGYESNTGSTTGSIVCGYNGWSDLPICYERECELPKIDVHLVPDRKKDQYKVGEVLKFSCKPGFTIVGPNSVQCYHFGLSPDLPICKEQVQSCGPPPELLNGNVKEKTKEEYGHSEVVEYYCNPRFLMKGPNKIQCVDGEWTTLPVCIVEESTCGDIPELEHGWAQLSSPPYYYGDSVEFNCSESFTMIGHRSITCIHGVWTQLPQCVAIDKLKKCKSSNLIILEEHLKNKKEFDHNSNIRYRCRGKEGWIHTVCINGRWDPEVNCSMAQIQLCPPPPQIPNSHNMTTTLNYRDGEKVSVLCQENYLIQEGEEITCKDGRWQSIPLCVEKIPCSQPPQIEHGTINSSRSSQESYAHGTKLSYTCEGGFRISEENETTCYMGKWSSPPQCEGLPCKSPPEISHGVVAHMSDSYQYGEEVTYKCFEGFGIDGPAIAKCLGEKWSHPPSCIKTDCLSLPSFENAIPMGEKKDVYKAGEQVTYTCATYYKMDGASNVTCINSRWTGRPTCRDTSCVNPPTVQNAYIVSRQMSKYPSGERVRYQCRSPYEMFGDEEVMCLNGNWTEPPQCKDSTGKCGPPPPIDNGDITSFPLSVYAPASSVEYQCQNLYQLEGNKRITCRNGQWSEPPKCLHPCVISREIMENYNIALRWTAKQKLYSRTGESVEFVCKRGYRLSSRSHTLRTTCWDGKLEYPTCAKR
UniProt P16220: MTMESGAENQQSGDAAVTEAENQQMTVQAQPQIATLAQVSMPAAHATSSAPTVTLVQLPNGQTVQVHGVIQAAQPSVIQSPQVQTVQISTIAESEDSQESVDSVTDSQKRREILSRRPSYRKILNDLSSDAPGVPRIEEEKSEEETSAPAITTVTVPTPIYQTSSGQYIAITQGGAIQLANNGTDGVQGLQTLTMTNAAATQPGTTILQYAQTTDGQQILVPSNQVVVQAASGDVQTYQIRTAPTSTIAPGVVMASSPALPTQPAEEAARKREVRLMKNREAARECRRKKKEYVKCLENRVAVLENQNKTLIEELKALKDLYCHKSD

Molecular target: complement factor H (FH) (human (endogenous in hTERT-RPE1)) (UniProt P08603)
Test: co-IP; Western blot for CREB1 on eluates of FH-IPs and IgG control IPs from hTERT-RPE1 lysates

binding: binds
Substance: CREB1 (from UniProt P16220 1-327)
